Source: the supplement of paper PMC10849652
Some of the results follow.

Amino acid sequences for entries named in this document (tags omitted). A change or cut given only in a name is not applied to a line headed by its entry.
UniProt P82970: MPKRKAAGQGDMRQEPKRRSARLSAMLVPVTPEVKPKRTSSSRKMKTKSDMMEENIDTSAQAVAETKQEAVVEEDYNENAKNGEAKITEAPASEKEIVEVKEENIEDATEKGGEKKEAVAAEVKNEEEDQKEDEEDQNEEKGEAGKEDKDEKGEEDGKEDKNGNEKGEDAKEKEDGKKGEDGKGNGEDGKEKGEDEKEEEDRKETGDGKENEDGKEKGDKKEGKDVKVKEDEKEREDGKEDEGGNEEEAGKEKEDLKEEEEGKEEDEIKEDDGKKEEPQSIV
UniProt Q9Y5Z4: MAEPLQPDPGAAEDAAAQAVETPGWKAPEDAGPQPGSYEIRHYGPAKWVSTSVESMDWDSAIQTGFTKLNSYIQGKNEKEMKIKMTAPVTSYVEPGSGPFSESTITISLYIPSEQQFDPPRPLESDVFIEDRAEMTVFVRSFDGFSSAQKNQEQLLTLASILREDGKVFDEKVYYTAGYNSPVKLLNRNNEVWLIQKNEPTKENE
UniProt Q9NWT6: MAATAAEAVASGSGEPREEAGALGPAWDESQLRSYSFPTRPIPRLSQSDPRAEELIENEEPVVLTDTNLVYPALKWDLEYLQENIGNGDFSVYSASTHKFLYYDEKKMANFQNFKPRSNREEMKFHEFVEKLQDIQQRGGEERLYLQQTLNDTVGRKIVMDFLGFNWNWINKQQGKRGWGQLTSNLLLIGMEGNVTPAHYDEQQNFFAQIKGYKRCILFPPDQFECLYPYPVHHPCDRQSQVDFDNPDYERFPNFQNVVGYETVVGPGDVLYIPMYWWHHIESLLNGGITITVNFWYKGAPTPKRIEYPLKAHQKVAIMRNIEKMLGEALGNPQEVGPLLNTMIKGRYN
UniProt Q9BXL5: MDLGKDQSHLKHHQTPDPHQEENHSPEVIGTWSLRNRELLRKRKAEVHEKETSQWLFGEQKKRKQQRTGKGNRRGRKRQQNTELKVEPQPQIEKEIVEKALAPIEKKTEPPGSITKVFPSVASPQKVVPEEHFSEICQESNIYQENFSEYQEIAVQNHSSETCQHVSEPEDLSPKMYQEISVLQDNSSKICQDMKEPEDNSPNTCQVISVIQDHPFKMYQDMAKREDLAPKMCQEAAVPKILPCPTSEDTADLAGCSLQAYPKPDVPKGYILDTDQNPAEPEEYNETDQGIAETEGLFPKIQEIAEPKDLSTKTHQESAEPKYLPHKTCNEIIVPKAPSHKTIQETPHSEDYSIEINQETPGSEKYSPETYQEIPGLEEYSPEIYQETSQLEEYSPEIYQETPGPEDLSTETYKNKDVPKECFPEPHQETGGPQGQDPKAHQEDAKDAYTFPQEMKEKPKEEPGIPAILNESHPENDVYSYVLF
UniProt P07686: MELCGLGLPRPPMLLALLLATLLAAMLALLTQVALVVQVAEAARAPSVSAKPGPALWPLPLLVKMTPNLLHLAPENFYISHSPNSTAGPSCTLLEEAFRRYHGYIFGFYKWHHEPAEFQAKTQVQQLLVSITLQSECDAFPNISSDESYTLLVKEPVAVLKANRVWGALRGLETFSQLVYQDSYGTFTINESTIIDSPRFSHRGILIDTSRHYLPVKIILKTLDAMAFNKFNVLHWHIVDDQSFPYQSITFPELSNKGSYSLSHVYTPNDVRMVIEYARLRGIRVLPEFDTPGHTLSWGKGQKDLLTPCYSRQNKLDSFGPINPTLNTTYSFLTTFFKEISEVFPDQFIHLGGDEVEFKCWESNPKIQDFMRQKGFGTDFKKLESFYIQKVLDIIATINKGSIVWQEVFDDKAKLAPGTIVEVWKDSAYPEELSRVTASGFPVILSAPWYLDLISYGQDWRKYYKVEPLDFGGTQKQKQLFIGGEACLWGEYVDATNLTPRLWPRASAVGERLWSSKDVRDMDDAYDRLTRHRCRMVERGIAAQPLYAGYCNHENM
UniProt O15347: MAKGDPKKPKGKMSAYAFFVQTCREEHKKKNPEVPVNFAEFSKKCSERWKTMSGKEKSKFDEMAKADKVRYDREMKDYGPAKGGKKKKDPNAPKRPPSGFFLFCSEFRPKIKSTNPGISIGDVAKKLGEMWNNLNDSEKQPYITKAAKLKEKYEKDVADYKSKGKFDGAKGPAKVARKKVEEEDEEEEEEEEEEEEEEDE
UniProt P34932: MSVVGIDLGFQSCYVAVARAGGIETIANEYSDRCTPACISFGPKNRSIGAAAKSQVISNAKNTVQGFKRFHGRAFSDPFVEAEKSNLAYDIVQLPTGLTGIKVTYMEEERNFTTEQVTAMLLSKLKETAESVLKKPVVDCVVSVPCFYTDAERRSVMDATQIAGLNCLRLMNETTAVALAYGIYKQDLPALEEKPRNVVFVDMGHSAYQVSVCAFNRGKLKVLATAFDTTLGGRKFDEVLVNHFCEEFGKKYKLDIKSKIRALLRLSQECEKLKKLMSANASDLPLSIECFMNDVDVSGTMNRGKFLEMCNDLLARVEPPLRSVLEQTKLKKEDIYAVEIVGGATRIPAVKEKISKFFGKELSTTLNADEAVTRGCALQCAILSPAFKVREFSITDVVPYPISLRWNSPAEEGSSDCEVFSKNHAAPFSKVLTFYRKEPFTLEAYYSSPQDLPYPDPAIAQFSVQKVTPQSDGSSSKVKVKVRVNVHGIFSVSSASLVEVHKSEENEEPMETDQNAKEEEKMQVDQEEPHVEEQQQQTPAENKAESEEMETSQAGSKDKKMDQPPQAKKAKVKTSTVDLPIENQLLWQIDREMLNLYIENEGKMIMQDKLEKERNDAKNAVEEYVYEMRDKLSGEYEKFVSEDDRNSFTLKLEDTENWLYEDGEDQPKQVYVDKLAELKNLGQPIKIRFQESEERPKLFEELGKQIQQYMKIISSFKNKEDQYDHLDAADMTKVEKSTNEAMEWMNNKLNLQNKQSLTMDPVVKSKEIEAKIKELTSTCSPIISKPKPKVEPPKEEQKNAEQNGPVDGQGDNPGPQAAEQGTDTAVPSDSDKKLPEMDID
UniProt O75146: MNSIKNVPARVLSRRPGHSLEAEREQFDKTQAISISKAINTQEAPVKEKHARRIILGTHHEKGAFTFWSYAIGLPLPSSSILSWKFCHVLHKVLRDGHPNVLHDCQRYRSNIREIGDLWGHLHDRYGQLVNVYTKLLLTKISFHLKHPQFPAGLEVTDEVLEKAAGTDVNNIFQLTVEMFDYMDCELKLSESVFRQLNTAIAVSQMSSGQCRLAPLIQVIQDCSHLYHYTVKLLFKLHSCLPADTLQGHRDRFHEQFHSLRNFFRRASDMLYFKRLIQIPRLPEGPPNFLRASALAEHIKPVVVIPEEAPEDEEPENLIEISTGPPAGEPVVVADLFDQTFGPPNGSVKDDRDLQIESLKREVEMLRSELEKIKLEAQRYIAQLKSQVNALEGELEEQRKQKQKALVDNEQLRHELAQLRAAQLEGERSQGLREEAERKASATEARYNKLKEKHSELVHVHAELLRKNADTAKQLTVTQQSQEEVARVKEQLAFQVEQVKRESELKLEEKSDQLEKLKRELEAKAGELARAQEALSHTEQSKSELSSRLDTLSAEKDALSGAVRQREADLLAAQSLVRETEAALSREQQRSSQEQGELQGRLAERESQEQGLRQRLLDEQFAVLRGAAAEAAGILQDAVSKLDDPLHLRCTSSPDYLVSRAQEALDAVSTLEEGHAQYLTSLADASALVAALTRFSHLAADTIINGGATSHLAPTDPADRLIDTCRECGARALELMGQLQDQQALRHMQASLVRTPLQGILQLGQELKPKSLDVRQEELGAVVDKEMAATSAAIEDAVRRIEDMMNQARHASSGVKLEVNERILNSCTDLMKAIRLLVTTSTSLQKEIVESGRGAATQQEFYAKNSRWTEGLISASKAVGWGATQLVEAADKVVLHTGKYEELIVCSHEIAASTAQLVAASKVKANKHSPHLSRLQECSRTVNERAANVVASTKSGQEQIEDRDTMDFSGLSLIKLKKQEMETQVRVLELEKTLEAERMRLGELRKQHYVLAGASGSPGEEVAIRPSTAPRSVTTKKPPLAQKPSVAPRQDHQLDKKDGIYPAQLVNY
UniProt Q8TCT9: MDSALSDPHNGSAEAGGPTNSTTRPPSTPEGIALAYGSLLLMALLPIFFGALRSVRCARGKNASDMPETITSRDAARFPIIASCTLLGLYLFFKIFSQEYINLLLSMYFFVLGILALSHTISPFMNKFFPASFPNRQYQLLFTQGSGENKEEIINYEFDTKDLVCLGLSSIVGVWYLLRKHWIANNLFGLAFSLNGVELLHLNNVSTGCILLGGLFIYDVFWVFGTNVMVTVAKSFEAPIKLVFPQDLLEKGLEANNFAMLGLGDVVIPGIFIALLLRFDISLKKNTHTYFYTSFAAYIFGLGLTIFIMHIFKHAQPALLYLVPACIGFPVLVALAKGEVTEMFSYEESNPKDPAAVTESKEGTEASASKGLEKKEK
UniProt Q9BQS7: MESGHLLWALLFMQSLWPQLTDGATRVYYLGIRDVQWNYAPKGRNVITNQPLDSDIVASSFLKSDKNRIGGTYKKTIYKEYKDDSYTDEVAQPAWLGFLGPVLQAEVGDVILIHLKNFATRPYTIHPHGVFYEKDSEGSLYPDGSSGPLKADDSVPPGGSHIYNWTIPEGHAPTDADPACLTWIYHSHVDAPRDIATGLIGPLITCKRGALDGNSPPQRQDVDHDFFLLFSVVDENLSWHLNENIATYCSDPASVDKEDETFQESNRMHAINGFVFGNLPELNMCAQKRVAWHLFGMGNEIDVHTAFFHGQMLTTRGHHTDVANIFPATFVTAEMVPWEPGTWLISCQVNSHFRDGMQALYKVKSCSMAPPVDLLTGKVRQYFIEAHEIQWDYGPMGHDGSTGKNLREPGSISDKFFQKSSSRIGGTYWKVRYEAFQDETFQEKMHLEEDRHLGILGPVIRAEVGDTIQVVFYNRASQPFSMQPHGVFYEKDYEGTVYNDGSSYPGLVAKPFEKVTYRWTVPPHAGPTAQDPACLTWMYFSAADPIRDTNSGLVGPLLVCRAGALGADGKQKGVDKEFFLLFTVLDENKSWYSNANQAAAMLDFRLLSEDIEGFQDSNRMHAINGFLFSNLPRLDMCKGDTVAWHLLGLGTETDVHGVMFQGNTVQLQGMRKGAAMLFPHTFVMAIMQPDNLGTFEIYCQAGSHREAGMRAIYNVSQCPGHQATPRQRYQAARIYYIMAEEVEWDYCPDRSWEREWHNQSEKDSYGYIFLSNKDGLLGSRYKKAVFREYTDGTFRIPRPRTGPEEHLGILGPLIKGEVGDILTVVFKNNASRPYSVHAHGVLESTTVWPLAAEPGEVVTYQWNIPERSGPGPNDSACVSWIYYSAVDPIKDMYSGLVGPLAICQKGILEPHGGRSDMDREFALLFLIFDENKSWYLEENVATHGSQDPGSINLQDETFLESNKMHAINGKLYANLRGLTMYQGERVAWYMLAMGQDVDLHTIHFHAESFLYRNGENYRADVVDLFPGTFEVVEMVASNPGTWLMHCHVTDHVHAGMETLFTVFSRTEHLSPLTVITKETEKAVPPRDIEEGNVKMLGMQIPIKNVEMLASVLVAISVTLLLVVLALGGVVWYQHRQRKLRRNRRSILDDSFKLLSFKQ
UniProt Q6YN16: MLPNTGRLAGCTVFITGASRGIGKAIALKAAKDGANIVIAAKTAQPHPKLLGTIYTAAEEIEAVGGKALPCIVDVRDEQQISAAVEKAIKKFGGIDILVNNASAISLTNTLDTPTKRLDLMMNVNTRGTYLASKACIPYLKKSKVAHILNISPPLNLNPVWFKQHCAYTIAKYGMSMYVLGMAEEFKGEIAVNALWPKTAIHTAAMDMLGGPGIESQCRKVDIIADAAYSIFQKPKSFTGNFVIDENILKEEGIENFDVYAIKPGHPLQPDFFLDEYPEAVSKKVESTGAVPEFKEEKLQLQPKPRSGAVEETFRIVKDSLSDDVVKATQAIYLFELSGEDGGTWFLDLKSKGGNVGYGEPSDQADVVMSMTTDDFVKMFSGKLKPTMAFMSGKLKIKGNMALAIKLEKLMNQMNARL

Tests used:
Assay in all cases: log2 fold change, soluble protein after heating vs DMSO (PISA); higher = thermal stabilisation; K562 lysate, 10 uM; active = over 0.2 and 3.5 SD of the protein, either way, in both replicates (recomputed)
vemurafenib = compound: CCCS(=O)(=O)Nc1ccc(F)c(C(=O)c2c[nH]c3ncc(-c4ccc(Cl)cc4)cc23)c1F [vemurafenib]
In short: (§1)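 Log-two fold change in thermal stability relative to solvent controls is reported from duplicates. For each sample, crude K562 extract from dounce-homogenised pellets in PBS pH 7.4 with 1 mM MgCl2, at 1 mg/mL protein, was treated with 10 μM compound for 30 min. Aliquots heated for 3 min across 48°C-58°C were pooled, brought to 0.5% NP-40 at 4°C and cleared at 21,000xg for 90 min. The supernatant was quantified by TMTpro 16plex LC-MS/MS with channel sums equalised.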

[1] = compound: CCCS(=O)(=O)Nc1ccc(F)c(C(=O)c2c[nH]c3ncc(Cl)cc23)c1F
In short: as §1

barasertib = compound: CCN(CCCOc1ccc2c(Nc3cc(CC(=O)Nc4cccc(F)c4)[nH]n3)ncnc2c1)CCOP(=O)(O)O [barasertib]
In short: as §1

[2] = compound: CC[C@@H]1C(=O)N(C)c2cnc(Nc3ccc(C(=O)NC4CCN(C)CC4)cc3OC)nc2N1C1CCCC1
In short: as §1

volasertib = compound: CC[C@@H]1C(=O)N(C)c2cnc(Nc3ccc(C(=O)N[C@H]4CC[C@H](N5CCN(CC6CC6)CC5)CC4)cc3OC)nc2N1C(C)C [volasertib]
In short: as §1

[3] = compound: CCn1c(C(=O)N(C2CC2)C2CC2)cc2c3c(ncn3C)c(Nc3cc(C)n(C)n3)nc21
In short: as §1

[4] = compound: CCn1cc(-c2ccnc3[nH]c(-c4cccc(CN(C)C)c4)cc23)c(-c2ccc(NC(=O)N(C)C)cc2)n1
In short: as §1

[5] = compound: CN1CCC(CNc2ccc3ncc(-c4cccc(OC(F)(F)F)c4)n3n2)CC1
In short: as §1

saracatinib = compound: CN1CCN(CCOc2cc(OC3CCOCC3)c3c(Nc4c(Cl)ccc5c4OCO5)ncnc3c2)CC1 [saracatinib]
In short: as §1

sotrastaurin = compound: CN1CCN(c2nc(C3=C(c4c[nH]c5ccccc45)C(=O)NC3=O)c3ccccc3n2)CC1 [sotrastaurin]
In short: as §1

alvocidib = compound: CN1CC[C@H](c2c(O)cc(O)c3c(=O)cc(-c4ccccc4Cl)oc23)[C@H](O)C1 [alvocidib]
In short: as §1

Tubastatin A = compound: CN1CCc2c(c3ccccc3n2Cc2ccc(C(=O)NO)cc2)C1 [Tubastatin A]
In short: as §1

[6] = compound: CNC(=O)C1=CC=CC=C1NC2=NC(=NC=C2Cl)NC3=C(C=C(C=C3)N4CCOCC4)OC
In short: as §1

defactinib = compound: CNC(=O)c1ccc(Nc2ncc(C(F)(F)F)c(NCc3nccnc3N(C)S(C)(=O)=O)n2)cc1 [defactinib]
In short: as §1

[7] = compound: CNc1nc(-c2ccc3c(N)n[nH]c3c2)cc(N2C[C@@H](C(=O)NC3CCCCC3)CC[C@H]2C)n1
In short: as §1

encorafenib = compound: COC(=O)N[C@@H](C)CNc1nccc(-c2cn(C(C)C)nc2-c2cc(Cl)cc(NS(C)(=O)=O)c2F)n1 [encorafenib]
In short: as §1

[8] = compound: COC(=O)[C@H](CCSC)NC(=O)C1=C(C=C(C=C1)NC[C@H](CS)N)C2=CC=CC=C2
In short: as §1

alisertib = compound: COc1cc(Nc2ncc3c(n2)-c2ccc(Cl)cc2C(c2c(F)cccc2OC)=NC3)ccc1C(=O)O [alisertib]
In short: as §1

[9] = compound: COc1cc2nc(-c3cc(F)ccc3O)nc(N[C@@H]3CNC[C@H]3C(C)(C)O)c2cc1OC
In short: as §1

gefitinib = compound: COc1cc2ncnc(Nc3ccc(F)c(Cl)c3)c2cc1OCCCN1CCOCC1 [gefitinib]
In short: as §1

Measured: log2 fold change

HIST2H2BF isoform 2 (UniProt Q5QNW6)
inactive: vemurafenib 0.009 | [1] 0.064 | barasertib -0.028 | [2] -0.032 | volasertib 0.013 | [3] -0.029 | [4] 0.046 | [5] 0.004 | saracatinib -0.045 | sotrastaurin -0.005 | alvocidib -0.001 | Tubastatin A 0.019 | [6] -0.014 | defactinib -0.033 | [7] 0.164 | encorafenib -0.026 | [8] 0.103 | alisertib 0.015 | [9] -0.003 | gefitinib -0.03

HMGN5 (UniProt P82970)
active: [4] 0.3
inactive: vemurafenib -0.007 | [1] -0.011 | barasertib -0.044 | [2] 0.016 | volasertib 0.013 | [3] -0.044 | [5] -0.164 | saracatinib -0.027 | sotrastaurin -0.029 | alvocidib 0.04 | Tubastatin A 0.045 | [6] -0.029 | defactinib 0.051 | [7] 0.018 | encorafenib -0.029 | [8] -0.023 | alisertib -0.036 | [9] 0.006 | gefitinib -0.028

HEBP2 (UniProt Q9Y5Z4)
inactive: vemurafenib -0.015 | [1] -0.025 | barasertib 0.091 | [2] 0.038 | volasertib 0.037 | [3] 0.001 | [4] -0.047 | [5] 0.025 | saracatinib -0.016 | sotrastaurin -0.014 | alvocidib 0.033 | Tubastatin A 0.039 | [6] 0.003 | defactinib -0.033 | [7] -0.011 | encorafenib -0.007 | [8] -0.014 | alisertib -0.027 | [9] 0.023 | gefitinib -0.019

HIF1AN (UniProt Q9NWT6)
inactive: vemurafenib 0.015 | [1] 0.059 | barasertib 0.152 | [2] -0.048 | volasertib 0.015 | [3] 0.053 | [4] -0.053 | [5] 0.104 | saracatinib 0.029 | sotrastaurin 0.062 | alvocidib -0.003 | Tubastatin A 0.088 | [6] -0.055 | defactinib 0.094 | [7] 0.071 | encorafenib 0.013 | [8] 0.066 | alisertib -0.132 | [9] -0.012 | gefitinib 0.09

HEMGN (UniProt Q9BXL5)
inactive: vemurafenib -0.012 | [1] 0.011 | barasertib -0.029 | [2] 0.021 | volasertib 0.011 | [3] -0.03 | [4] 0.097 | [5] -0.063 | saracatinib -0.027 | sotrastaurin -0.011 | alvocidib 0.038 | Tubastatin A 0.046 | [6] 0.015 | defactinib -0.009 | [7] 0.035 | encorafenib -0.023 | [8] 0.004 | alisertib -0.009 | [9] -0.011 | gefitinib -0.004

HEXB (UniProt P07686)
inactive: vemurafenib -0.014 | [1] -0.002 | barasertib -0.006 | [2] -0.01 | volasertib -0.002 | [3] 0.026 | [4] 0.018 | [5] -0.029 | saracatinib 0.008 | sotrastaurin 0.004 | alvocidib 0.013 | Tubastatin A -0.003 | [6] -0.02 | defactinib -0.005 | [7] -0.026 | encorafenib -0.003 | [8] 0.006 | alisertib 0.021 | [9] -0.004 | gefitinib -0.033

HMGB3 (UniProt O15347)
inactive: vemurafenib 0.014 | [1] 0.027 | barasertib -0.098 | [2] 0.113 | volasertib 0.026 | [3] -0.023 | [4] 0.049 | [5] -0.073 | saracatinib 0 | sotrastaurin -0.033 | alvocidib 0.036 | Tubastatin A 0 | [6] 0.006 | defactinib -0.017 | [7] 0.079 | encorafenib -0.011 | [8] -0.074 | alisertib -0.047 | [9] -0.046 | gefitinib -0.021

HSPA4 (UniProt P34932)
inactive: vemurafenib -0.022 | [1] -0.004 | barasertib -0.011 | [2] -0.011 | volasertib 0.001 | [3] 0.007 | [4] -0.049 | [5] 0.018 | saracatinib -0.013 | sotrastaurin 0.004 | alvocidib 0 | Tubastatin A 0.016 | [6] -0.018 | defactinib -0.006 | [7] -0.035 | encorafenib -0.025 | [8] 0.033 | alisertib 0.001 | [9] -0.006 | gefitinib -0.008

HELZ (UniProt P42694)
inactive: vemurafenib 0.019 | [1] 0.032 | barasertib 0.027 | [2] 0.042 | volasertib -0.117 | [3] 0.028 | [4] -0.099 | [5] 0.046 | saracatinib -0.001 | sotrastaurin 0.028 | alvocidib -0.064 | Tubastatin A -0.085 | [6] 0.034 | defactinib 0.041 | [7] -0.023 | encorafenib 0.008 | [8] -0.004 | alisertib 0.02 | [9] 0.063 | gefitinib -0.02

HIST2H2AA3 (UniProt Q6FI13)
inactive: vemurafenib -0.078 | [1] 0.028 | barasertib -0.012 | [2] -0.007 | volasertib -0.006 | [3] 0.012 | [5] -0.217 | saracatinib -0.034 | sotrastaurin -0.116 | alvocidib 0.202 | Tubastatin A 0.092 | [6] -0.002 | defactinib -0.032 | [7] 0.277 | encorafenib -0.027 | [8] 0.086 | alisertib -0.097 | [9] -0.027 | gefitinib -0.086
active: [4] 0.694

HNRNPK isoform 3 (UniProt P61978)
inactive: vemurafenib 0 | [1] 0.007 | barasertib 0.024 | [2] 0.053 | volasertib 0.019 | [3] -0.052 | [4] -0.014 | [5] 0.006 | saracatinib 0.04 | sotrastaurin -0.007 | alvocidib 0.081 | Tubastatin A -0.001 | [6] 0.014 | defactinib -0.043 | [7] 0.053 | encorafenib 0.03 | [8] -0.069 | alisertib -0.021 | [9] 0.017 | gefitinib -0.001

HIP1R (UniProt O75146)
inactive: vemurafenib 0.019 | [1] 0.024 | barasertib 0.026 | [2] 0.018 | volasertib -0.006 | [3] 0 | [4] 0.053 | [5] -0.01 | saracatinib 0.025 | sotrastaurin 0.001 | alvocidib 0.023 | Tubastatin A -0.016 | [6] 0.014 | defactinib -0.006 | [7] 0.004 | encorafenib 0.012 | [8] 0.008 | alisertib -0.005 | [9] 0.008 | gefitinib 0.007

HM13 (UniProt Q8TCT9)
inactive: vemurafenib 0.019 | [1] 0.015 | barasertib 0.119 | [2] 0.079 | volasertib 0.078 | [3] -0.028 | [4] 0.494 | [5] -0.071 | saracatinib 0.081 | sotrastaurin -0.017 | alvocidib -0.109 | Tubastatin A -0.009 | [6] -0.004 | defactinib 0.127 | [7] 0.187 | encorafenib 0.08 | [8] 0.126 | alisertib 0.077 | [9] -0.029 | gefitinib 0.089

HMGN4 (UniProt O00479)
inactive: vemurafenib -0.015 | [1] 0.016 | barasertib -0.003 | [2] 0.453 | volasertib 0.003 | [3] 0.022 | [5] -0.595 | saracatinib -0.173 | sotrastaurin -0.099 | alvocidib 0.581 | Tubastatin A -0.001 | [6] 0.01 | defactinib 0.122 | [7] 0.235 | encorafenib -0.072 | [8] -0.046 | alisertib -0.074 | [9] -0.036 | gefitinib 0.111
active: [4] 1.29

Two entries picked at random from those above:
HM13 (UniProt Q8TCT9)
inactive: vemurafenib 0.019 | [1] 0.015 | barasertib 0.119 | [2] 0.079 | volasertib 0.078 | [3] -0.028 | [4] 0.494 | [5] -0.071 | saracatinib 0.081 | sotrastaurin -0.017 | alvocidib -0.109 | Tubastatin A -0.009 | [6] -0.004 | defactinib 0.127 | [7] 0.187 | encorafenib 0.08 | [8] 0.126 | alisertib 0.077 | [9] -0.029 | gefitinib 0.089

HIST2H2AA3 (UniProt Q6FI13)
inactive: vemurafenib -0.078 | [1] 0.028 | barasertib -0.012 | [2] -0.007 | volasertib -0.006 | [3] 0.012 | [5] -0.217 | saracatinib -0.034 | sotrastaurin -0.116 | alvocidib 0.202 | Tubastatin A 0.092 | [6] -0.002 | defactinib -0.032 | [7] 0.277 | encorafenib -0.027 | [8] 0.086 | alisertib -0.097 | [9] -0.027 | gefitinib -0.086
active: [4] 0.694

Continuation.

HEPH isoform 3 (UniProt Q9BQS7)
inactive: vemurafenib 0.031 | [1] 0.025 | barasertib 0.025 | [2] 0.03 | volasertib 0.013 | [3] -0.028 | [4] -0.007 | [5] 0.023 | saracatinib 0 | sotrastaurin 0.023 | alvocidib -0.021 | Tubastatin A 0.06 | [6] -0.004 | defactinib 0.004 | [7] -0.046 | encorafenib 0.048 | [8] 0.039 | alisertib -0.059 | [9] -0.012 | gefitinib 0.041

HSDL2 (UniProt Q6YN16)
inactive: vemurafenib 0.041 | [1] 0.009 | barasertib 0.017 | [2] -0.007 | volasertib -0.043 | [3] -0.06 | [4] -0.12 | [5] 0.074 | saracatinib -0.02 | sotrastaurin -0.019 | alvocidib -0.006 | Tubastatin A 0.052 | [6] -0.025 | defactinib 0.03 | [7] 0.038 | encorafenib -0.022 | [8] 0.03 | alisertib 0.011 | [9] -0.017 | gefitinib -0.015
